Experimental data reported in patent publication US6784155B1, “Inhibitor and stimulator of stem cell proliferation and uses thereof” (Wellstat Therapeutics Corporation, priority 1996, dated 2004).
Some entries share one result that the patent states for a list of compounds.

System: FDCP mix A4 (A4) cells
Assay: Tritiated thymidine incorporation by FDCP mix A4 stem cell line
Assay type: cell-based, murine
Details: tritiated thymidine uptake, FIG. 20

Row | Substance | concentration at which inhibitions are seen
1 | Porcine alpha chain: porcine hemoglobin alpha chain purified from peripheral red blood cells as in FIG. 21 | < 2 ng/mL
2 | Porcine beta chain: porcine hemoglobin beta chain purified from peripheral red blood cells as in FIG. 21 | < 2 ng/mL
